Data on 49 molecules can be found in PubChem BioAssay AID1307 (SRMLSC, 2008).

The campaign covered roughly 1,200 compounds. Fewer than 10 were called active.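 The calls were made as follows: active = inhibition reaching a set limit at one or more tested concentrations; inactive = inhibition under that limit at every dose.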 The list shows a part of the results. Entries with a potency or affinity are not part of this list.

The assay in a line: yeast RAM network inhibitors, dose response, S. cerevisiae (AID 1307).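 Also: 0% = DMSO vehicle wells and 100% = 10 µM 1-NA-PP1 control; higher inhibition means more yeast growth since RAM block rescues cells from 5-FOA.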 The settings on record: S. cerevisiae RAM network URA3 reporter, 5-FOA growth OD615, hits give high values, yeast express analog-sensitive mutant Cbk1 kinase; at 100 µM unless noted.
For `CCCCCCNC(=O)c1cc(-c2ccco2)nc2ccccc12`, the max inhibition is inactive: 2.66%. For `CCOC(=O)c1cccc(NC(=O)CSc2nnc(COc3ccccc3C)o2)c1`, the max inhibition was inactive: 2.04% [at 50 µM].

Consider `Cn1nc(C(F)(F)F)c(/C=N/OC(=O)c2ccccc2Cl)c1SCc1ccccc1Cl`, for which the max inhibition was inactive: 0.46% [at 25 µM]. Consider `Cc1ccc(N2CCN(C(=O)c3cc(C(=O)c4ccccc4C)c[nH]3)CC2)c(C)c1`, for which the max inhibition was inactive: 2.01%.

Turning to `N#C/C(=C\Nc1ccccc1SC(F)(F)F)c1nc(-c2ccccc2)cs1`, the max inhibition was inactive: 4.49% [at 3.125 µM].

With `Cc1cccc(OCCC(=O)Nc2ccc(C)c(S(=O)(=O)N3CCCCC3)c2)c1`, the max inhibition is inactive: 4.92%.

For `CNS(=O)(=O)c1cccc(C(=O)OCc2csc(-c3ccccc3)n2)c1`, the max inhibition was inactive: 3.04%.

In the case of `CCN(CC)S(=O)(=O)c1cccc(C(=O)c2c(C)cc3ccccn23)c1`, the max inhibition is inactive: 1.52%. The same measure for `CCCCNC(=S)N(C)/N=C/c1ccc(OCc2ccc(C(=O)OC)cc2)c(OC)c1`: inactive: 9.25%. The same measure for `COc1cccc(/C=C(/C(=O)OCC(=O)NC2CCCCCCC2)c2ccccc2)c1`: inactive: 4.43% [at 25 µM]. The same measure for `COc1ccccc1-n1c(COc2ccccc2-c2ccccc2)nnc1SCC(=O)c1c(N)n(C)c(=O)n(C)c1=O`: inactive: 11.9%. Consider `CSc1nc2ccccc2cc1/C=C(\C#N)c1cccc(C)c1`, for which the max inhibition was inactive: 6.35% [at 50 µM]. The same measure for `O=C(OCc1nnc(-c2ccccc2)o1)C12CC3CC(CC(Br)(C3)C1)C2`: inactive: 4.38% [at 1.563 µM]; for `NS(=O)(=O)c1ccc(NC(=S)NC(=O)c2cccc(Br)c2)cc1`: inactive: 1.28% [at 25 µM]. The same measure for `COc1ccccc1C(NC(=O)C1CCCCC1)c1c(O)ccc2ccccc12` (centres undefined): inactive: 5.27%; for `Nc1ncnc(Sc2ccccc2)c1[N+](=O)[O-]`: inactive: 8.94%; for `COc1ccc(C2=NN(C(C#N)c3ccc(OC)cc3)C(c3ccccc3)C2)cc1` (centres undefined): inactive: 6.79%. The result for `CCN(CC)C(=O)CSc1nc2cc3c(cc2c(=O)n1CCCCCC(=O)NCc1ccc(OC)cc1)OCO3` reads inactive: 4.6%. In the case of `CCCS(=O)(=O)c1c(S(=O)(=O)CCC)c2c(N)cccn2c1C(=O)c1ccc(Br)cc1`, the max inhibition was inactive: 6.47%. The result for `Cc1ccc(C2=NN(Cc3nnc(-c4ccccc4)o3)C(=O)SC2)cc1` reads inactive: 3.29%; that for `CCCCN(CC(=O)NCc1ccc(Cl)cc1)S(=O)(=O)c1ccc2c(c1)OCCO2`, inactive: 2.29% [at 12.5 µM]; that for `COc1cc(-c2cc(C(=O)Nc3ccc(S(=O)(=O)NCc4ccco4)cc3)c3ccccc3n2)cc(OC)c1OC`, inactive: 11.7%.

In the case of `CC(C)c1ccc(CNc2cc(N3CCCC3)ccc2[N+](=O)[O-])cc1`, the max inhibition was inactive: 5.27%. The result for `COC(=O)c1c(NC(=O)c2ccc(C)cc2)sc(Cc2ccccc2)c1C` reads inactive: 3.81%; that for `C=CCN(CC=C)S(=O)(=O)c1ccc(NC(=S)NC(=O)c2ccc(-c3ccccc3)cc2)cc1`, inactive: 3.65%. The result for `CN(C)c1ccc(N=Nc2ccccc2C(=O)OCC(=O)NCC2CCCCC2)cc1` reads inactive: 4.33% [at 50 µM]; that for `CCCCN(C(=O)c1cccc2c(=O)c(C)c(-c3ccccc3)oc12)c1ccccc1`, inactive: 2.21% [at 25 µM]. As for `COc1ccc(-c2nc(-c3ccc(O)cc3O)cs2)cc1OC`, the max inhibition is inactive: 5.02% [at 3.125 µM]. The result for `Cc1ccc(C(=O)CC(=O)c2ccc(C(C)(C)C)cc2)cc1` reads inactive: 10.3%; that for `COC(=O)c1cc(=O)n(CCc2ccccc2)c(=Nc2ccc(F)cc2)s1`, inactive: 4.08% [at 50 µM]. The result for `CCOC(=O)c1sc2nc(CSCC(=O)OCc3ccc(C(=O)OC)o3)[nH]c(=O)c2c1C` reads inactive: 3.02% [at 25 µM]. The result for `COc1cccc(OCCNc2cc(N3CCOCC3)ccc2[N+](=O)[O-])c1` reads inactive: 3.13% [at 0.782 µM]; that for `CCC(=O)N1CCc2cc(S(=O)(=O)NC(Cc3ccccc3)C(=O)NC3CCCCC3)ccc21` (centres undefined), inactive: 3.34% [at 1.563 µM]; that for `COc1ccc(NS(=O)(=O)c2ccc3oc(SCc4ccc(F)cc4)nc3c2)cc1`, inactive: 3% [at 1.563 µM]. Regarding `CCOC(=O)c1cnn(-c2ccccc2)c1-n1cccc1C(=O)C(=O)Nc1ccccc1C(F)(F)F`, the max inhibition was inactive: 4.62%. As for `CCCN1C(=O)/C(=C/c2ccc(C)s2)SC1=Nc1ccc(OC)cc1`, the max inhibition was inactive: 7.08% [at 25 µM]. The same measure for `CCOC(=O)c1cnc(SC)nc1Oc1cccc(NC(=O)c2ccc(C)cc2)c1`: inactive: 5.83% [at 50 µM]. The result for `COC(=O)CCSCC(=O)N1N=C(c2ccc(Br)cc2)CC1c1cccc(OC)c1OC` (centres undefined) reads inactive: 1.41%.

Regarding `Cc1cccc(NC(=O)/C(C#N)=C/c2ccc(Sc3ccccc3)o2)c1C`, the max inhibition was inactive: 10.5%. In the case of `Cc1ccc(NC(=O)c2ccc(F)cc2)cc1S(=O)(=O)N1CCCCCC1`, the max inhibition was inactive: 3.05% [at 6.25 µM].

`O=C(O)c1ccc(Cl)c(S(=O)(=O)Nc2cccc(C(=O)Nc3cccc(C(F)(F)F)c3)c2)c1`: the max inhibition was inactive: 4.27% [at 1.563 µM].

Consider `O=[N+]([O-])c1ccc(-c2nnc(-c3ccccc3)c(NCCCO)n2)cc1`, for which the max inhibition was inactive: 3.03% [at 50 µM]. For `CCN(Cc1ccccc1)S(=O)(=O)c1ccc(S(=O)(=O)N(Cc2ccccn2)Cc2ccco2)cc1`, the max inhibition is inactive: 13.1%. The same measure for `CCOc1cc(/C=N/N=C2/NC(=O)C(CC(=O)O)S2)ccc1OS(=O)(=O)c1ccc(C)cc1` (centres undefined): inactive: 2.55% [at 3.125 µM]; for `Cc1nn(Cc2c(Cl)cccc2Cl)c(C)c1NC(=O)Cn1nc([N+](=O)[O-])c(Cl)c1C`: inactive: 2.95% [at 0.391 µM]. The result for `COc1ccc(CCNC(=O)c2ccc(-c3ccc([N+](=O)[O-])cc3)o2)cc1OC` reads inactive: 5.97%.

As for `CC(=O)C(N=Nc1ccccc1)(Sc1nnc(-c2ccccc2)n1-c1ccccc1)C(C)=O`, the max inhibition was inactive: 3.28%. The same measure for `CC1=C(C(=O)OCc2ccccc2)C(c2ccc(C(C)(C)C)cc2)NC(=O)N1CCCCCC(=O)O` (centres undefined): inactive: 5.18%; for `COc1cc(NC(=O)COC(=O)Cc2ccc(-c3ccccc3)cc2)cc(OC)c1`: inactive: 2.81%.
